In publication PMC1849891 one finds binding data, which are given here for 3 molecules.

Chains of the proteins cited; added tags and fusions are not shown.
UniProt Q9US25: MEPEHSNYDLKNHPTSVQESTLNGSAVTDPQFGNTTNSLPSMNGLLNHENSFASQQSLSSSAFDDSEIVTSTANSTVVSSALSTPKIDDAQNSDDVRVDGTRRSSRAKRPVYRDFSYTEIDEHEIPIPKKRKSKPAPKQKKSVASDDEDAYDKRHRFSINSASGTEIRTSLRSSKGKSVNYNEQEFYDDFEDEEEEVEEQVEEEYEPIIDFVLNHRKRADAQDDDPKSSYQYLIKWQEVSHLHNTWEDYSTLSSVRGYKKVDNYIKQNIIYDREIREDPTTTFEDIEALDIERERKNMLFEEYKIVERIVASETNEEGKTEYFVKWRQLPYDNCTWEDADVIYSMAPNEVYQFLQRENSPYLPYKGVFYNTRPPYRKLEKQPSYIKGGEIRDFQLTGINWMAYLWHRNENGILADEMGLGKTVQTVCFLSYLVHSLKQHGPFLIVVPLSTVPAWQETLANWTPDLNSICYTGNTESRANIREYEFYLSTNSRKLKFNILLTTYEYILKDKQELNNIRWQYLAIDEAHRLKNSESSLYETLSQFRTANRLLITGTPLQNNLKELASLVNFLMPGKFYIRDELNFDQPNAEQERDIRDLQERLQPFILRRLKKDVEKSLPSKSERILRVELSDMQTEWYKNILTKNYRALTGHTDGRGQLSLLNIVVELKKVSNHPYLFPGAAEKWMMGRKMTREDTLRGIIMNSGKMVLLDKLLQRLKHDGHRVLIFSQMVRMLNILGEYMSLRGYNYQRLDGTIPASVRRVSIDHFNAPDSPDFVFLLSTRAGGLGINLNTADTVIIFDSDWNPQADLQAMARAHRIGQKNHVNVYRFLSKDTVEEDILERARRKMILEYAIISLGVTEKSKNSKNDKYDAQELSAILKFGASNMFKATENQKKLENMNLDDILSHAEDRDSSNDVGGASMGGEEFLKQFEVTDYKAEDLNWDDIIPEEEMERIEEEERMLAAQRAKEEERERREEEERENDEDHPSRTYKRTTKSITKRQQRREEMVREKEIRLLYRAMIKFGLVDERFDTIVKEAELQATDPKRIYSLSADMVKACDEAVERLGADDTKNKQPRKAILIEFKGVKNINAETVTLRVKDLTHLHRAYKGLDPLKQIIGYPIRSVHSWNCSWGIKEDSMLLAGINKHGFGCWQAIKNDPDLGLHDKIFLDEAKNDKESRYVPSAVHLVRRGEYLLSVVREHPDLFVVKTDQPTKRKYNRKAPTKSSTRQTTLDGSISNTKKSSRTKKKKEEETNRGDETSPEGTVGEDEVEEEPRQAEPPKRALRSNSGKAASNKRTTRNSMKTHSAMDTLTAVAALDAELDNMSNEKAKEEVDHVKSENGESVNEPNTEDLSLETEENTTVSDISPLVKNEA

No constants are given. Whether binding was seen depends on the method and setting. Binding seen in cells or lysates may run through a third protein. These calls come from enrichment with a bait or labelling near it, and not all partners need be listed. For some assays here: A no says only that the protein was not detected with the bait. Where a sequence is shown, tags or fusion partners need not be part of it.

Common to all, as to assay: affinity purification with mass spectrometry; TAP purification from S. pombe soluble extract (20 mM HEPES pH 8.0, 150 mM NaCl, 0.1% Tween 20): IgG beads, TEV cut, calmodulin-binding beads, EGTA elution; eluate digested with trypsin and peptides identified by MS
Test [1] concerns the target T1, C-terminally TAP-tagged Swm1 (S. pombe) (UniProt Q9Y802).
T1 sequence: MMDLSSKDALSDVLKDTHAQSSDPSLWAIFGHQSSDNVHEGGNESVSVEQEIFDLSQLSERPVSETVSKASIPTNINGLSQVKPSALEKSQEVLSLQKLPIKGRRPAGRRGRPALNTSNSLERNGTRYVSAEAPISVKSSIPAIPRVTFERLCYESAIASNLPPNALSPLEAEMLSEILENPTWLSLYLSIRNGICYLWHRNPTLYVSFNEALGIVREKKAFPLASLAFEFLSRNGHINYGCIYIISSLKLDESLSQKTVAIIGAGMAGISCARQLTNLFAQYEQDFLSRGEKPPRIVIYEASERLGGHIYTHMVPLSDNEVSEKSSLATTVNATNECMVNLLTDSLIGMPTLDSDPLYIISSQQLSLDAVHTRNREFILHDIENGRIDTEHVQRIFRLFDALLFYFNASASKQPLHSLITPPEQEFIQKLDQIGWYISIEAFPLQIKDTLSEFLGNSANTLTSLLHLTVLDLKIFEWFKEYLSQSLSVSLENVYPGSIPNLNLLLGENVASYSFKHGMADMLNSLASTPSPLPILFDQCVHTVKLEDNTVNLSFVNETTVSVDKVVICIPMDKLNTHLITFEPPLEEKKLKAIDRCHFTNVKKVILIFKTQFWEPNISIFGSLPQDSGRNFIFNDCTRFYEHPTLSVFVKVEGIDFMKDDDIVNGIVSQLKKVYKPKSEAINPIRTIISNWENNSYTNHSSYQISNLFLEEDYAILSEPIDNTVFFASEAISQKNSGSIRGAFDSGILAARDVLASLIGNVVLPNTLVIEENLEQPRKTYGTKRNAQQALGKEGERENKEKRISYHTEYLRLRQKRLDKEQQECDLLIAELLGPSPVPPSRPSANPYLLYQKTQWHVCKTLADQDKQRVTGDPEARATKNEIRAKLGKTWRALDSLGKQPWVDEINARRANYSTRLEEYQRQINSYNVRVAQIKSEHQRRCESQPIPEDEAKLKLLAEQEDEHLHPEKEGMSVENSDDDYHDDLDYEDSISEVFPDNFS

The target in test [2] is T2, C-terminally TAP-tagged Swm2 (S. pombe) (UniProt Q10135).
T2 sequence: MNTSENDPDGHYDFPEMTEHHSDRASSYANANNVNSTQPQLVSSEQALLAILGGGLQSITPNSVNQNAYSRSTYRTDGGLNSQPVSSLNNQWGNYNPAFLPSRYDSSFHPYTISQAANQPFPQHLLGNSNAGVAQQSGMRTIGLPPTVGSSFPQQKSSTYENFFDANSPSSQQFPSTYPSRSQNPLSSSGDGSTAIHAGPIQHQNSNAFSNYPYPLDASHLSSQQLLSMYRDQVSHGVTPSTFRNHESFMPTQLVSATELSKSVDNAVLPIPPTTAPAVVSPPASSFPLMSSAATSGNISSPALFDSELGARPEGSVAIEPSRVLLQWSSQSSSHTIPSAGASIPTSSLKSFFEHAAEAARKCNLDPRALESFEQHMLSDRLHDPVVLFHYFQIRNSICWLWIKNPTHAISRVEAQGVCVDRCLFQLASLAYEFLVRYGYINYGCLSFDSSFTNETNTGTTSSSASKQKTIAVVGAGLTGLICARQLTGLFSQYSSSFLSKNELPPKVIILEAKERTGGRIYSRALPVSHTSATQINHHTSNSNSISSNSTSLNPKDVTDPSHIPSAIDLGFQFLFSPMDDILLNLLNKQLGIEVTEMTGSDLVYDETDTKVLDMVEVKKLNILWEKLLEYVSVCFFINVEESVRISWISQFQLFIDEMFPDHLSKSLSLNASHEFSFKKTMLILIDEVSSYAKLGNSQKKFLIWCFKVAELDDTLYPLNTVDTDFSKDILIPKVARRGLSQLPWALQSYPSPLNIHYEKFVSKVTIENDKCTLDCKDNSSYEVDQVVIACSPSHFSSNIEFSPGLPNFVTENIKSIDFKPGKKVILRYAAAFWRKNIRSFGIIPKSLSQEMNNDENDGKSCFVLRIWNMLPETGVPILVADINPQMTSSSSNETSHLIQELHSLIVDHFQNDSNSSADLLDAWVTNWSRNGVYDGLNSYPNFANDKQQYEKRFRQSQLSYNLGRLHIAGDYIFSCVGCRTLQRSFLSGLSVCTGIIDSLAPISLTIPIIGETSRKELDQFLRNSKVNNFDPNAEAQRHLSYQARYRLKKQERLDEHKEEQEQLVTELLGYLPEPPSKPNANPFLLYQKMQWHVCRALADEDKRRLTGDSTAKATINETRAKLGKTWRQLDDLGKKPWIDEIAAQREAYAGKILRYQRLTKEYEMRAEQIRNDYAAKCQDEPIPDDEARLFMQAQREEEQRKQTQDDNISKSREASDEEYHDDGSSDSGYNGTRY

In test [3] the target is T3, C-terminally TAP-tagged Swm2 (S. pombe), Q10135.
T3 chain: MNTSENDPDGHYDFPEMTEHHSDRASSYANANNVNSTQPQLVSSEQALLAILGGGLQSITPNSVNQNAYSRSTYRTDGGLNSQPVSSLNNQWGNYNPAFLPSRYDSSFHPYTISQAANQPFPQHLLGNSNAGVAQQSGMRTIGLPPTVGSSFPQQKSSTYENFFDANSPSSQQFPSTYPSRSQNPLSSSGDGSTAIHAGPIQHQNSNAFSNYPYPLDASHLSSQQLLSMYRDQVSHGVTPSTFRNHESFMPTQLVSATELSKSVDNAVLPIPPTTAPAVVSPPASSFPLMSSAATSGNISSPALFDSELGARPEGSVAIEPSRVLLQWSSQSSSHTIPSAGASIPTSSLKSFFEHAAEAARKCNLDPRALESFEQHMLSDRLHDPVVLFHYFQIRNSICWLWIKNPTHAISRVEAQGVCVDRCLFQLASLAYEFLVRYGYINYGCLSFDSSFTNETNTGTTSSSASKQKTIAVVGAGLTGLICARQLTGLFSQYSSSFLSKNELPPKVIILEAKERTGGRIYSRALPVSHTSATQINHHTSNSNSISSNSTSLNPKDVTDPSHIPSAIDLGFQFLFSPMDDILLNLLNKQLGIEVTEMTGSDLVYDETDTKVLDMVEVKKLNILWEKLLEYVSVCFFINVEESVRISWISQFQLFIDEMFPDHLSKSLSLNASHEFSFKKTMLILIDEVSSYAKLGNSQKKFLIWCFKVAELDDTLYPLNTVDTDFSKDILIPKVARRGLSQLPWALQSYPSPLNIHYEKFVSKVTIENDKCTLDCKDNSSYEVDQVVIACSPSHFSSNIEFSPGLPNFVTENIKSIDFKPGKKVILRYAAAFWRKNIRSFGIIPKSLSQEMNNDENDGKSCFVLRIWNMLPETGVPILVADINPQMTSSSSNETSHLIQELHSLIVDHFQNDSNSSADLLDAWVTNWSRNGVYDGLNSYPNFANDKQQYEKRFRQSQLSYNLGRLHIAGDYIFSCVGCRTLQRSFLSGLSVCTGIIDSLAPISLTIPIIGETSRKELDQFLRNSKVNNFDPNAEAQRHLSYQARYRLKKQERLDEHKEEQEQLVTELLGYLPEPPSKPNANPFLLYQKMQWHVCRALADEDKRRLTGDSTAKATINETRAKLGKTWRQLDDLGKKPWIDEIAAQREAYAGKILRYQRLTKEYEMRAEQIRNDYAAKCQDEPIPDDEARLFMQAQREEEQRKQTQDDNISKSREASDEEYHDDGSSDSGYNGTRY
The conditions noted are these: remark: other sources report otherwise.

For the molecule Hrp1 (from UniProt Q9US25 1-1373), the binding result in test [1] and in test [2] was “no binding” each time. For “SPBPJ758.01 (an RNA recognition motif protein) (S. pombe)”, the binding result in test [1] and in test [2] was “no binding” in each case.

B1: Swm1, Q9Y802 1-1000 (protein)
chain: MMDLSSKDALSDVLKDTHAQSSDPSLWAIFGHQSSDNVHEGGNESVSVEQEIFDLSQLSERPVSETVSKASIPTNINGLSQVKPSALEKSQEVLSLQKLPIKGRRPAGRRGRPALNTSNSLERNGTRYVSAEAPISVKSSIPAIPRVTFERLCYESAIASNLPPNALSPLEAEMLSEILENPTWLSLYLSIRNGICYLWHRNPTLYVSFNEALGIVREKKAFPLASLAFEFLSRNGHINYGCIYIISSLKLDESLSQKTVAIIGAGMAGISCARQLTNLFAQYEQDFLSRGEKPPRIVIYEASERLGGHIYTHMVPLSDNEVSEKSSLATTVNATNECMVNLLTDSLIGMPTLDSDPLYIISSQQLSLDAVHTRNREFILHDIENGRIDTEHVQRIFRLFDALLFYFNASASKQPLHSLITPPEQEFIQKLDQIGWYISIEAFPLQIKDTLSEFLGNSANTLTSLLHLTVLDLKIFEWFKEYLSQSLSVSLENVYPGSIPNLNLLLGENVASYSFKHGMADMLNSLASTPSPLPILFDQCVHTVKLEDNTVNLSFVNETTVSVDKVVICIPMDKLNTHLITFEPPLEEKKLKAIDRCHFTNVKKVILIFKTQFWEPNISIFGSLPQDSGRNFIFNDCTRFYEHPTLSVFVKVEGIDFMKDDDIVNGIVSQLKKVYKPKSEAINPIRTIISNWENNSYTNHSSYQISNLFLEEDYAILSEPIDNTVFFASEAISQKNSGSIRGAFDSGILAARDVLASLIGNVVLPNTLVIEENLEQPRKTYGTKRNAQQALGKEGERENKEKRISYHTEYLRLRQKRLDKEQQECDLLIAELLGPSPVPPSRPSANPYLLYQKTQWHVCKTLADQDKQRVTGDPEARATKNEIRAKLGKTWRALDSLGKQPWVDEINARRANYSTRLEEYQRQINSYNVRVAQIKSEHQRRCESQPIPEDEAKLKLLAEQEDEHLHPEKEGMSVENSDDDYHDDLDYEDSISEVFPDNFS
With B1, the binding entry in test [3] was “binds”.
